We go through one molecule from article PMC9061850.

For the assay, the target named is IAPP fibrils (preformed mature amyloid fibrils of human IAPP) (human). The experiment in a line: negative-stain electron microscopy; preformed IAPP fibrils (67 µM monomer equivalent) incubated with PhPFD at 100:1 for 30 min, stained with sodium silicotungstate, imaged at 30,000x; both purified.

These are yes or no findings as the source states them, for the method shown. Some binding calls cover weakened binding; strength is not graded here.

B1: Prefoldin from Pyrococcus horikoshii (PhPFD, α2β4 heterohexamer, 86.4 kDa) (complex, UniProt O58263 1-148; O58268 1-117)
chain 1: MAQNNKELEKLAYEYQVLQAQAQILAQNLELLNLAKAEVQTVRETLENLKKIEEEKPEILVPIGAGSFLKGVIVDKNNAIVSVGSGYAVERSIDEAIGFLEKRLKEYDEAIKKTQGALAELEKRIGEVARKAQEVQQKQSMTSFKVKK
chain 2: MQNIPPQVQAMLGQLDTYQQQLQLVIQQKQKVQADLNEAKKALEEIETLPDDAQIYKTVGTLIVKTTKEKAVQELKEKIETLEVRLNALNRQEQKINEKVKELTQKIQAALRPPTAG
For the molecule B1, the binding result is given as “binds”.
